# From PubChem BioAssay AID504444 (National Center for Advancing Translational Sciences (NCATS), 2011)
# About 7,500 (2.1%) of roughly 360,000 compounds were called active. Inconclusive results, whose numbers are uncertain, are shown with a selection of clear calls. Calls follow the shape of the dose curve; as a rule, active = well fitted inhibition curve with a large enough effect; inconclusive = small, poorly fitted or top-dose-only effect, or effect the other way; inactive = flat fitted curve, though single readings scatter. Potencies beside an inconclusive call are fits to weak or partial responses and may not hold up.
# Assay: Nrf2 qHTS screen for inhibitors; also: nearly all actives have a fitted effect of over 60% in size
# Settings: A549 ARE-Fluc reporter, luciferase luminescence, 18-24 h; activity change, negative = inhibition: at 46 µM (top of the series)
# Summary of the method: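 Nrf2 function is reported as luminescence of an ARE-controlled luciferase in A549 cells. Compounds were tested at several concentrations, and a CellTiter-Fluor read on the same wells flagged cytotoxicity.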
# % is scaled to controls: 0 for no effect and ±100 for the full control effect; potency is read from the fitted curve at half-maximal effect.
Structure (SMILES),Potency,"activity change, negative = inhibition"
COc1ccc(-c2cc(C(=O)N3CCN(c4ccccc4)CC3)c3ccccc3n2)cc1,"inconclusive: 0.164 µM [activator, full curve, poor fit]",
COc1ccc2oc(C(=O)NCc3cc(OC)c(OC)cc3OC)c(C)c2c1,"inconclusive: 29.1 µM [falling, single point]",
Cc1noc(C)c1C(=O)OCC(=O)NC(c1ccccc1)c1ccccc1,"inconclusive: 0.0065 µM [falling, full curve, poor fit]",
O=C(c1ccc2c3n(nc2c1)-c1ccccc1CO3)N1CCOCC1,"inconclusive: 5.17 µM [activator, partial curve, poor fit]",
Fc1c(CSC(=S)N2CCOCC2)cccc1CSC(=S)N1CCOCC1,"inconclusive: 29.1 µM [falling, single point]",
COc1ccccc1CNC(=O)c1nn(-c2ccc(C)cc2)c(=O)c2c1c1ccccc1n2C,"inconclusive: 14.6 µM [falling, partial curve, poor fit]",
Cc1cccc(C)c1OCc1nc2ccccc2c(=O)n1/N=C/c1c[nH]c2ccccc12,"inconclusive: 23.1 µM [falling, single point]",
CCOC(=O)c1cnc(-n2nc(C)cc2C)nc1NNc1cc(C)nc(-c2ccccc2)n1,active: 4.11 µM,
Cc1ccc(NC(=O)c2cccc(S(C)(=O)=O)c2)cc1,"inconclusive: 10.3 µM [activator, partial curve]",
O=C(Nc1ccc2c(c1)OCO2)Nc1ccccc1F,"inconclusive: 3.26 µM [activator, full curve]",
CCOC(=O)c1oc2ccccc2c1NC(=O)CCl,,inactive: 10.6%
COc1ccc(CCNC(=S)Nc2cc(C)ccc2C)cc1,"inconclusive: 29.1 µM [falling, partial curve, poor fit]",
Cc1n[nH]c(=O)n1-c1ccc(OC(F)(F)F)cc1,,inactive: -3.08%
CCOc1ccc(NC(=O)CN(C)C(=O)c2cn(-c3ccc(F)cc3)nc2-c2cccc(OC)c2)cc1OCC,"inconclusive: 29.1 µM [falling, single point]",
CCC(=O)Nc1cc(C(F)(F)F)ccc1N1CCOCC1,"inconclusive: 1.64 µM [activator, full curve]",
CCN(CC)c1nc2c(S(=O)(=O)c3ccc(C)cc3)nnn2c2ccsc12,,inactive: -0.312%
CC1CCN(C(=O)c2[nH]cnc2C(=O)N[C@@H](C)C(=O)OCc2ccccc2)CC1,,inactive: 21.5%
Cc1cc(C)c(C)c(S(=O)(=O)N2CCC(C(=O)Nc3ccccc3N3CCOCC3)CC2)c1C,"inconclusive: 0.92 µM [activator, full curve, poor fit]",
COC(=O)c1ccc(C(=O)NC2CC(C)(C)Cc3c2cnn3-c2ccc(F)cc2)nc1 (stereo not given),"inconclusive: 20.6 µM [activator, partial curve, poor fit]",
O=C(NCc1ccccc1)c1cccc(NC(=O)N2CCSc3ncccc32)c1,,inactive: -16%
COc1ccc(-n2nc(C(=O)NCc3ccco3)c3ccccc3c2=O)cc1,"inconclusive: 32.6 µM [falling, partial curve, poor fit]",
CC(C)CNC(=O)COc1ccc2c3c(c(=O)oc2c1)CCC3,"inconclusive: 18.4 µM [falling, partial curve, poor fit]",

Structure (SMILES),Potency,"activity change, negative = inhibition"
CC(=O)N1CCN(C(=O)c2ccc(OC3CCN(Cc4ccccn4)CC3)cc2)CC1,,inactive: 3.42%
O=C1Cc2cc(S(=O)(=O)N3CCN(c4ccc(C(F)(F)F)cc4)CC3)ccc2N1,"inconclusive: 0.447 µM [falling, full curve, poor fit]",
C=C(C)c1nc(Oc2ccccc2)nc(Oc2ccccc2)n1,,inactive: 9.41%
NC(=O)CC(NC(=O)c1ccccc1)c1ccc(NCC2CC2)c([N+](=O)[O-])c1 (stereo not given),"inconclusive: 11.6 µM [falling, partial curve]",
Nc1c(-c2ccccn2)cnn1-c1nc(-c2ccc(F)cc2)cs1,"inconclusive: 16.4 µM [activator, partial curve, poor fit]",
Cc1ccc(-n2cnnn2)cc1Cl,"inconclusive: 0.0103 µM [falling, full curve, poor fit]",
Cc1cc(=S)c2cccc(C)c2[nH]1,"inconclusive: 6.51 µM [falling, single point]",
CC1=C(C(=O)Nc2ccc(C)c(C)c2)C2(CCCCCC2)OC1=O,"inconclusive: 29.1 µM [activator, single point]",
Cc1ccc(NC(=O)c2cc(N3C(=O)C4CC=CCC4C3=O)ccc2N2CCCCC2)cc1 (stereo not given),"inconclusive: 1.64 µM [falling, full curve, poor fit]",
CC(C)Sc1nnc2c3ccccc3n(C)c2n1,"inconclusive: 5.17 µM [activator, partial curve, poor fit]",
CCN1CCN(CC(=O)Nc2ccc(C(C)=O)cc2)CC1,"inconclusive: 2.06 µM [activator, partial curve, poor fit]",
CCNS(=O)(=O)c1ccc(NC(=O)c2ccc(Cn3cc(Br)cn3)o2)cc1,"inconclusive: 29.1 µM [falling, single point]",
Nc1nc(N)c2[nH]cnc2n1,"inconclusive: 20.6 µM [activator, partial curve]",
CC1(C)CC[C@]2(C(=O)n3ccnc3)CC[C@]3(C)[C@H](C(=O)C=C4[C@@]5(C)C=C(C#N)C(=O)C(C)(C)[C@@H]5CC[C@]43C)[C@@H]2C1,active: 5.8 µM,
CCOc1ccc(-c2nnn(CC(=O)c3ccc4c(c3)OCCO4)n2)cc1,"inconclusive: 29.1 µM [falling, single point]",
CC[n+]1c(C)cc2c(sc3ccccc32)c1C,"inconclusive: 0.517 µM [falling, full curve, poor fit]",
COc1ccccc1Nc1nc2ccccc2n1C,"inconclusive: 8.2 µM [activator, partial curve]",
Cc1cccc(-n2nc3c(c2NC(=O)C2CC2)CS(=O)(=O)C3)c1C,"inconclusive: 29.1 µM [falling, single point]",
CCOC(=O)c1ccc(NC(=O)CCc2nc(-c3ccc(Cl)cc3)no2)cc1,"inconclusive: 29.1 µM [falling, single point]",
CN1CCN(CCCNCc2cn(CCC#N)c3ccccc23)CC1,,inactive: 3.29%
CC1=C(c2ccc(C)c(C)c2)S(=O)(=O)N(Cc2ccc(C(=O)NCc3ccc(C)cc3)cc2)C1=O,"inconclusive: 1.84 µM [falling, partial curve, poor fit]",
CCN(CC)C(=O)CSc1ncnc2sc(C)c(C)c12,"inconclusive: 18.4 µM [falling, single point]",

# Reprinted at random: four entries already listed, in no set order.
Structure (SMILES),Potency,"activity change, negative = inhibition"
CC[n+]1c(C)cc2c(sc3ccccc32)c1C,"inconclusive: 0.517 µM [falling, full curve, poor fit]",
CCN(CC)c1nc2c(S(=O)(=O)c3ccc(C)cc3)nnn2c2ccsc12,,inactive: -0.312%
COc1ccc(-n2nc(C(=O)NCc3ccco3)c3ccccc3c2=O)cc1,"inconclusive: 32.6 µM [falling, partial curve, poor fit]",
CC(=O)N1CCN(C(=O)c2ccc(OC3CCN(Cc4ccccn4)CC3)cc2)CC1,,inactive: 3.42%

# Additional entries follow.

Structure (SMILES),Potency,"activity change, negative = inhibition"
CN(C)c1nc2n(c(=S)n1)CCS2,"inconclusive: 3.26 µM [activator, partial curve, poor fit]",
CN1CCc2c(OCC(=O)N3CCC(Cc4ccccc4)CC3)cccc2C1=O,"inconclusive: 25.9 µM [falling, single point]",
Cc1ccc(Sc2ccc(/C=N/O)cc2[N+](=O)[O-])cc1,"inconclusive: 23.1 µM [falling, single point]",
CCCCCc1ccc(-c2ccc(OCC)cc2)nc1,active: 0.366 µM,
COc1ccc(Br)cc1C(=O)Nc1ccc(NC(=O)c2ccco2)cc1,"inconclusive: 2.59 µM [falling, full curve, poor fit]",
CNc1snc(C)c1C(=O)OC(C)C(=O)c1ccc(F)cc1 (stereo not given),active: 20.6 µM,
O=C(Nc1nnc(S(=O)(=O)N2CCCC2)s1)c1ccccc1Cl,"inconclusive: 4.11 µM [activator, full curve]",
COCCn1c(SCc2ccc(F)cc2)nc2ccccc2c1=O,"inconclusive: 10.3 µM [falling, partial curve, poor fit]",
O=C(CCCc1nc2ccccc2s1)N1CCN(S(=O)(=O)c2cccs2)CC1,"inconclusive: 14.6 µM [falling, single point]",
NC(=S)NN=C1c2cc(Cl)ccc2-c2c1cc(Cl)cc2[N+](=O)[O-],"inconclusive: 18.4 µM [falling, single point]",
COc1cc(-c2nc3ccccn3c2/N=C/c2ccccc2)ccc1O,,inactive: 6.85%
O=C(CN1C(=O)COc2ccc(S(=O)(=O)N3CCCCC3)cc21)NCCc1ccc(Cl)cc1,"inconclusive: 9.2 µM [activator, partial curve, poor fit]",
Cc1nc(N2CCN(S(=O)(=O)c3ccc(Br)cc3)CC2)c2c(C)c(C)sc2n1,"inconclusive: 14.6 µM [falling, partial curve]",
COc1ccc(N(CC(=O)N2CCN(c3ccccc3F)CC2)S(=O)(=O)c2ccc(C)cc2)cc1,"inconclusive: 3.66 µM [falling, single point]",
CSc1ccc(C2c3c(oc4ccc(F)cc4c3=O)C(=O)N2c2ccc(C)cn2)cc1 (stereo not given),,inactive: 27.2%
CCc1[nH]nc(C(=O)N2CCCC(Nc3ccc(C(C)C)cc3)C2)c1C (stereo not given),"inconclusive: 18.4 µM [falling, partial curve, poor fit]",
COc1ccc2nc(SCC(=O)N3CCCCCC3)c(C#N)cc2c1,"inconclusive: 4.11 µM [activator, full curve, poor fit]",
CC(C)S(=O)(=O)c1csc(NC(=O)Nc2ccc(Cl)cc2)c1Cl,active: 20.6 µM,
CCCCc1nn2c(=O)cc(COC(=O)CNC(=O)c3ccccc3C)nc2s1,"inconclusive: 29.1 µM [activator, single point]",
CN(c1ccccc1)S(=O)(=O)c1ccc(C(=O)N2CCc3ccccc3C2)cc1,"inconclusive: 29.1 µM [falling, single point]",
CC(C)CCn1c(-c2nonc2N)nc2ccccc21,"inconclusive: 25.9 µM [falling, single point]",
